Assay results reported in ChEMBL document CHEMBL1147285, “A mammalian cell agar-diffusion assay for the detection of toxic compounds” (J Nat Prod, 1989).

Tested on: HT-29
Assay: Antiproliferative activity against human HT-29 cells after 96 hrs by MTT assay
Format: functional, cell-based
Conditions: HT-29, 96 h
In short: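 HT-29 (ATCC HTB 38) in RPMI 1640 + 10% fetal bovine serum, gentamicin 50 µg/ml; seeded 4000 cells/cm2, 200-µl cultures with or without agent, 96 h. MTT (5 mg/ml in medium, 75 µl) added for 90 min; formazan read at 570 nm. Absorbance as percent of untreated wells; IC50 by linear regression of logit-transformed data.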

## COc1cc2c(c(OC)c1OC)-c1ccc(OC)c(=O)cc1[C@@H](NC(C)=O)CC2 [COLCHICINE]
  IC50: 18 nM
